Data on four substances can be found in paper PMC13503143.

Chains of the proteins cited; added tags and fusions are not shown. Lines headed by an entry give the natural chain unless they say otherwise; changes in a name come on top. A line that says so, or that is headed by a name, gives the form on record, which may keep a tag or linker.
V5-DNAJB6b WT (O75190, form named): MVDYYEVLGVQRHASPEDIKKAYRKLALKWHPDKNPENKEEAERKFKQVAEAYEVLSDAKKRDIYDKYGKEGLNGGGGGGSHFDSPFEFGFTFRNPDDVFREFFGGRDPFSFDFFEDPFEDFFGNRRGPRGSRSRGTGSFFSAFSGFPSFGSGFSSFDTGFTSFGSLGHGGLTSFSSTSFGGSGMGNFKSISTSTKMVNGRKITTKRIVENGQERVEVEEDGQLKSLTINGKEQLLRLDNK
V5-DNAJB6b Y53E (O75190, form named): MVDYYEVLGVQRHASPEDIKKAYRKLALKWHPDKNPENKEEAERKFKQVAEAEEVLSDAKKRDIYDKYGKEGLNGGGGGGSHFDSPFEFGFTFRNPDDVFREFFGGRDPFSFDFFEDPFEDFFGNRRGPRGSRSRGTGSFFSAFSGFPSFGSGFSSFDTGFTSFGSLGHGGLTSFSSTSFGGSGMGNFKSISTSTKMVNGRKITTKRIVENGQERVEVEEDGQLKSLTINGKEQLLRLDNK
V5-DNAJB6b Y53F (O75190, form named): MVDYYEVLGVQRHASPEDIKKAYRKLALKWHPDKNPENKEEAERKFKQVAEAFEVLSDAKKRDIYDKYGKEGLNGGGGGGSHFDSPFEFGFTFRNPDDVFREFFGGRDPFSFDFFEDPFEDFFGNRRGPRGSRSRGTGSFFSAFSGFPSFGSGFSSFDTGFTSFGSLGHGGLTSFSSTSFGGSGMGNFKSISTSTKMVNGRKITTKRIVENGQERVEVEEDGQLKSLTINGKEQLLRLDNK
UniProt P11142: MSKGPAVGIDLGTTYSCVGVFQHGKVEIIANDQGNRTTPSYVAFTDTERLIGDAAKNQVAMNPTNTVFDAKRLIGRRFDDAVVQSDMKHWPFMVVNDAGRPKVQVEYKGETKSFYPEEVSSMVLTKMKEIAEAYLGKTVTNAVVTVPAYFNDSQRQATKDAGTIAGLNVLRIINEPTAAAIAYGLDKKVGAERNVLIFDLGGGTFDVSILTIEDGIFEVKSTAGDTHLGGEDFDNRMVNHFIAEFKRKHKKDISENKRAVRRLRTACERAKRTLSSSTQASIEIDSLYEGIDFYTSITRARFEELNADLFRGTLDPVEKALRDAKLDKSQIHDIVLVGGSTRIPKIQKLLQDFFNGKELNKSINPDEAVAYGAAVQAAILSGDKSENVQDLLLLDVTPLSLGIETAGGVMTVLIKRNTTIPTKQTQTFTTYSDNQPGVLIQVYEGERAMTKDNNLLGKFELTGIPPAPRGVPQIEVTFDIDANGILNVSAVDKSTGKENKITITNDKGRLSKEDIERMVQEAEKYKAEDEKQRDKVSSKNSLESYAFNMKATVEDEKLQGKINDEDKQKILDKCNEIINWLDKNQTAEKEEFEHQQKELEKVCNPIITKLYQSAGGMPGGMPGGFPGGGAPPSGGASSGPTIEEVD
UniProt P0DMV8: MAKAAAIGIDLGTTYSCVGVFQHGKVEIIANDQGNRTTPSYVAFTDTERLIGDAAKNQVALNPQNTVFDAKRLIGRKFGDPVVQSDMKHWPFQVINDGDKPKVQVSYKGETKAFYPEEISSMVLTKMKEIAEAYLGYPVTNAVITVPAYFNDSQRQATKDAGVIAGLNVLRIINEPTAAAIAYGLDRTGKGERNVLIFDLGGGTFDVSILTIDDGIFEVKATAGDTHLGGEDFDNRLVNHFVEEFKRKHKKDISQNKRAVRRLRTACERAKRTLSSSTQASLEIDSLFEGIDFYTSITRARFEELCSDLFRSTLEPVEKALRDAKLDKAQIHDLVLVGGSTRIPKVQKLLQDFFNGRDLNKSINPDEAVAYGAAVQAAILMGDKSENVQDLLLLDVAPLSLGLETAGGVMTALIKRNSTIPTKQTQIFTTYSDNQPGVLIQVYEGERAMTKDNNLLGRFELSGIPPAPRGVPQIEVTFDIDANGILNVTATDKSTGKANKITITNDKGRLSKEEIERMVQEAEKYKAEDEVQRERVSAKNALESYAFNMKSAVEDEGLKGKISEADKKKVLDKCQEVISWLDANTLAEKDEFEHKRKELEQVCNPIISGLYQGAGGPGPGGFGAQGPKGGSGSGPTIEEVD

No constants are given. Whether binding was seen depends on the method and setting. In cells and extracts the contact can be indirect. Some entries that bind do so weakly or less than the wild type.

For assay [1], the target named is endogenous DNAJB6b (human (endogenous in SH-SY5Y)) (UniProt O75190). As to the kind of experiment: co-IP; SH-SY5Y cells co-expressing EGFP-tau P301L and Flag-HSPA8 WT or E218A/K220A for 48 h; lysate in 50 mM Tris-HCl pH 7.5, 150 mM NaCl, 0.5% Triton X-100, 1 mM EDTA; anti-DNAJB6 antibody to precipitate endogenous DNAJB6b, Protein G magnetic beads, 4 °C.
The target of assay [2] is V5-DNAJB6b Y53E (human) (UniProt O75190). As to the kind of experiment: proximity ligation; Duolink In Situ Red, anti-V5 and anti-HSPA8 antibodies, fixed SH-SY5Y cells 48 h after transfection of V5-DNAJB6b constructs; PLA+ cells of DAPI+ cells.
Assay [3] concerns the target V5-DNAJB6b Y53F (human) (UniProt O75190). Described as above.
Assay [4] deals with V5-DNAJB6b WT (human) (UniProt O75190). The assay is described as above.
In assay [5] the target is V5-DNAJB6b Y53E (human) (UniProt O75190). As to the kind of experiment: co-IP; SH-SY5Y cells co-expressing EGFP-tau P301L and V5-DNAJB6b constructs for 48 h; lysate in 50 mM Tris-HCl pH 7.5, 150 mM NaCl, 0.5% Triton X-100, 1 mM EDTA; anti-V5 antibody, Protein G magnetic beads, 4 °C; blots for HSPA8 and HSPA1A.
In assay [6] the target is V5-DNAJB6b Y53F (human) (UniProt O75190). Described as above.
Assay [7] addresses V5-DNAJB6b WT (human) (UniProt O75190). The description is as above.

For the substance “Flag-HSPA8 E218A/K220A (from UniProt P11142 1-646)”, in assay [1], the binding entry is listed as “binds”.

Consider “Flag-HSPA8 WT (from UniProt P11142 1-646)”, for which the binding result in assay [1] is recorded as “binds”.

HSPA8 (from UniProt P11142 1-646): the binding result with V5-DNAJB6b Y53E (human) [2] was “binds”; with V5-DNAJB6b Y53F (human) [3], “binds weakly”; in the assay with V5-DNAJB6b WT (human) [4] it was “binds”; with V5-DNAJB6b Y53E (human) [5], “binds”; with V5-DNAJB6b Y53F (human) [6], “binds”; with V5-DNAJB6b WT (human) [7], “binds”.

Consider HSPA1A (from UniProt P0DMV8 1-641), for which the binding entry with V5-DNAJB6b Y53E (human) [5], with V5-DNAJB6b Y53F (human) [6] and with V5-DNAJB6b WT (human) [7] was “binds” in each case.
